Measurements reported in PubChem BioAssay AID652259 (Drosophila RNAi Screening Center, 2013)

- Aim: 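Identify new Wingless signalling regulators in fly cells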 (primary screen)
- System: Drosophila clone 8 imaginal disc epithelial cells
- Reagents: long dsRNA against Drosophila genes
- Conditions: pathway stimulated by co-transfected Wingless expression plasmid
- Measurement: 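Dual luciferase reads per well after Wingless plasmid stimulation: reporter firefly light and Renilla control light; activity is firefly divided by Renilla, a ratio not deposited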
- Reading the numbers: firefly reporter light: higher = more Wg reporter light, before normalisation; Renilla control light: higher = more transfected or surviving cells
- Rule for the call: 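a knock-down is a candidate when at least two out of four statistical tests show it departing from its plate mean; one test alone signals a weak candidate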
- Meaning of the calls: active = candidate regulator (raises or lowers reporter); inactive = not a candidate
The deposit covers about 22,000 reagents; this is an unselected part of those that have a named target and a result. Of all reagents, 233 (1.1%) were called active. 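Light values are raw, unnormalised plate reads; the ratio scores behind the reporter calls were not deposited.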 Entries without a mark were called inactive. The numbers tell different reagents against one gene apart. A plus sign joins genes that one reagent is predicted to hit. The record does not give: the amount of reagent, the time to read-out, the dose of the treatment.

The first 3 entries as a preview:
no.	predicted target	reagent	reporter change call, replicate 1	firefly reporter light, replicate 1	firefly reporter light, replicate 2	Renilla control light, replicate 1	Renilla control light, replicate 2
1	Acadvl	1		23488		6544	
2	CG15745 (retired record)	1		15046		8713	
3	Acam + CG17770	1		14648		16665	

The list itself, from the first entry:
no.	predicted target	reagent	reporter change call, replicate 1	firefly reporter light, replicate 1	firefly reporter light, replicate 2	Renilla control light, replicate 1	Renilla control light, replicate 2
1	Acadvl	1		23488		6544	
2	CG15745 (retired record)	1		15046		8713	
3	Acam + CG17770	1		14648		16665	
4	Acam + CG17770	2		11856		12282	
5	Gfat2	1		2651	4493	787	880
6	lncRNA:CR42735 (retired record)	1		16721		7334	
7	ea	1		15893		3636	
8	Rnf146	1	Wg reporter activity raised (active)	32024		4530	
9	CG30357	1		4.71e5	5.26e5	1.29e5	1.03e5
10	CG33791 + CG12105 + CG18170	1		20729		4525	
11	rha	1		1964	8112	1376	1053
12	CG14795	1		28816		12701	
13	CG5665	1		20672		6176	
14	CG6293	1		7449		2880	
15	CG15820	1		14250		3568	
16	CG3916	1		14832		4074	
17	CG12605	1		2704		1467	
18	CG42380 + CG42379 + PIG-M + 1 more	1		17561		7585	
19	CG42380 + CG42379 + PIG-M + 1 more	2		6200		1917	
20	CG5386	1		36179		5895	
21	Atg14	1		2293	4651	806	2064
22	CG30054	1		26172		16541	
23	olf413	1		2896		1330	
24	olf413	2		20634	7.43e5	6797	3.37e5
25	olf413	3		19616		6329	
26	olf413	4		20549	6.58e5	6489	3.02e5
27	RpS11	1		9917		3765	
28	RpS11	2		5.52e5	6.07e5	2.12e5	1.83e5
29	Osi2	1		20033		3611	
30	Pxn	1		21844	7.28e5	8045	3.79e5
31	CG4839	1		7204		2976	
32	CG4839	2		2541	4667	1179	2817
33	Tmtc3	1		9488		2401	
34	CG16815	1		2586	8305	1063	3335
35	CG5565	1		3568	6083	1132	2570
36	CG5267	1		6656		2209	
37	Atg17	1		21233		4646	
38	GluRS-m	1		9410		3303	
39	lectin-46Ca	1		14768		4684	
40	CG17917	1		11712		3393	
41	CG10038	1		6533		2844	
42	Diedel	1		7677		3414	
43	CG32148	1		3376		1558	
44	CG6962	1		5574		1872	
45	eas	1		21079		9590	
46	tll	1		6896		2108	
47	CG5776	1		8871		3536	
48	CG14417	1		16995		12020	
49	Tim10 + CG42497	1		13330		3441	
50	CG17110	1		25148		18854	
51	Ugt49C1	1		2341	5184	589	2297
52	CG17746	1		7232		3132	
53	UbcE2M	1		4120		2032	
54	CG33331 + CG33332	1		4.47e5	4.28e5	1.70e5	1.42e5
55	CG6443	1		6028		1691	
56	dnr1	1		19596		11105	
57	dnr1	2		3221	7195	531	1824
58	CG42544	1		3036		1033	
59	PGAP5	1		2810	7159	1123	3433
60	CG11927	1		8640		3654	
61	Syn1 + CG7370	1		6.19e5	6.11e5	2.96e5	2.58e5
62	GalT1	1		4.99e5	4.71e5	1.84e5	1.98e5
63	Ilp2	1		5000		1624	
64	pix	1		2985	9185	1013	1858
65	BckdhA	1		10416		2311	
66	CG15570	1		20807		8977	
67	tea	1		3661		1252	
68	tea	2		2296	7066	645	2393
69	Usp14	1		10499		4102	
70	CG16782	1		21587		14145	
71	betaTub56D	1		5117		1544	
72	CG8834	1		5234		2371	
73	fz2	1		2010		1216	
74	fz2	2		9266		2118	
75	fz2	3		11916		4899	
76	scpr-A + scpr-C + scpr-B	1		20018		5222	
77	rdgB	1		5868		1255	
78	Vdup1	1		6138		2729	
79	Shaw	1		2625	9313	1051	4029
80	Shaw	2		3725	9858	1201	3787
81	Shaw	3		3.18e5	3.62e5	1.67e5	1.43e5
82	l(2)05287	1		11266		4548	
83	l(2)05287	2		2379	5571	817	2576
84	CG15429	1		1996	7252	989	2340
85	bcn92	1		22098		20368	
86	CG13215	1		5264		3184	
87	CG30110	1		19496		12362	
88	CG12895	1		2904	8803	748	2721
89	RpL14	1		2397	6656	912	1817
90	CG13384	1		7905		4692	
91	Ndfip	1		3580		1787	
92	CG43331	1		21227		7925	
93	Or94b	1		15370		13329	
